Measurements from patent US9320722B2, “Regulators of aldehyde dehydrogenase ALDH3A1 and related therapeutic methods” (Indiana University Research and Technology Corporation, priority 2013, dated 2016).
At least one structure is not confirmed: it was looked up by name or label, or the drawing left a doubt.

The chains behind the UniProt entries cited, without tags or fusion partners. Where a name states a change or a piece, a line headed by the entry shows the natural chain unless it says otherwise.
UniProt P00352: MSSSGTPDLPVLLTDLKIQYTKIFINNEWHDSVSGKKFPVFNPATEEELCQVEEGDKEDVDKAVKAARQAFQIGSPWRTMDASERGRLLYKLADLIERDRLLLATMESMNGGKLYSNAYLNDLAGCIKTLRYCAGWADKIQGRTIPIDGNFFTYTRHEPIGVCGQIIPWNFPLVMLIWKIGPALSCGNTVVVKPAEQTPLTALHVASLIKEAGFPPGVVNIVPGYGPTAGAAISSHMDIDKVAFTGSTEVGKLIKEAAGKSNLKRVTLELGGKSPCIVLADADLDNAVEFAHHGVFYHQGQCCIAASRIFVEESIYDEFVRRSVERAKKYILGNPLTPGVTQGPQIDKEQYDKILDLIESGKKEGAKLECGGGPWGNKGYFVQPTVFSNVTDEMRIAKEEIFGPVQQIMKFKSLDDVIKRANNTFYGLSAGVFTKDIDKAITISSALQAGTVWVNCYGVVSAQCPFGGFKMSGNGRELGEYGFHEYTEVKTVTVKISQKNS

Experiments:
ALDH1A1 = ALDH1A1 (Homo sapiens (Human), UniProt P00352); assay: ALDH1A1 dehydrogenase activity / IC50 determination (propionaldehyde substrate); assay type: biochemical
A549 cells = assay: MTT assay for cell proliferation / mafosfamide sensitivity, A549; assay type: cell-based; settings: FIG. 4A

Structure (SMILES): CC(=O)Nc1ccc(Nc2ccc(S(C)(=O)=O)cc2[N+](=O)[O-])cc1 [CB29, N-[4-{(4-(methylsulfonyl)-2-nitrophenyl)-4-amino}-phenyl]-acetamide]
- inhibitory potential / activity toward ALDH1A1 in vitro (in words) (ALDH1A1; CB29 analogs): no inhibitory potential
- inhibition of ALDH1A1 (in words) (ALDH1A1; up to / at 250 μM concentration): does not inhibit
- sensitivity to mafosfamide on co-treatment (in words), A549 (A549 cells; 50 μM inhibitor + mafosfamide): increased sensitivity to mafosfamide
- effect on cell proliferation as single agent (in words), A549 (A549 cells; 50 μM inhibitor): little effect on cell proliferation
